# Literature values as cited in patent US20110053907A1, “SUBSTITUTED PYRIMIDINES AND TRIAZINES AND THEIR USE IN CANCER THERAPY” (Auckland UniServices Limited, priority 2008, published 2011).
# At least one compound was matched to its structure with a doubt left.
# Experiments:
# [1] = system: cell lines over-expressing mutant forms of p110α; details: cited from earlier work
# [2] = system: human tumour xenografts; details: mice with human tumour xenografts; cited from earlier work
compound,measurement,setting,value
O=c1cc(N2CCOCC2)oc2c(-c3ccccc3)cccc12 [LY294002],activity in mutant p110α over-expressing cell lines versus parental control cells,[1],more active in cell lines over-expressing mutant forms of p110α than parental control cells
same,signalling through the PI3K pathway,[2],reduces signalling through the PI3K pathway
same,tumour volume,[2],causes reduction of tumour volume
